Assay results from doi:10.1101/2021.12.02.470978.
Results are given in words; binding and its absence hold for the method and conditions named. In cells and extracts the contact can be indirect. Some binding calls cover weakened binding; strength is not graded here.

Protein sequences, listed by entry. Tags and fused reporters are not part of them. Lines headed by an entry give the natural chain unless they say otherwise; changes in a name come on top. Residues count along the entry.
UniProt P0DTC8, residues 16-121: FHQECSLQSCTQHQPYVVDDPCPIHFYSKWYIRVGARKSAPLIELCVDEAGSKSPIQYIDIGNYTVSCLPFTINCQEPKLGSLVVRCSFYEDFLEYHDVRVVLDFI
UniProt Q96P20: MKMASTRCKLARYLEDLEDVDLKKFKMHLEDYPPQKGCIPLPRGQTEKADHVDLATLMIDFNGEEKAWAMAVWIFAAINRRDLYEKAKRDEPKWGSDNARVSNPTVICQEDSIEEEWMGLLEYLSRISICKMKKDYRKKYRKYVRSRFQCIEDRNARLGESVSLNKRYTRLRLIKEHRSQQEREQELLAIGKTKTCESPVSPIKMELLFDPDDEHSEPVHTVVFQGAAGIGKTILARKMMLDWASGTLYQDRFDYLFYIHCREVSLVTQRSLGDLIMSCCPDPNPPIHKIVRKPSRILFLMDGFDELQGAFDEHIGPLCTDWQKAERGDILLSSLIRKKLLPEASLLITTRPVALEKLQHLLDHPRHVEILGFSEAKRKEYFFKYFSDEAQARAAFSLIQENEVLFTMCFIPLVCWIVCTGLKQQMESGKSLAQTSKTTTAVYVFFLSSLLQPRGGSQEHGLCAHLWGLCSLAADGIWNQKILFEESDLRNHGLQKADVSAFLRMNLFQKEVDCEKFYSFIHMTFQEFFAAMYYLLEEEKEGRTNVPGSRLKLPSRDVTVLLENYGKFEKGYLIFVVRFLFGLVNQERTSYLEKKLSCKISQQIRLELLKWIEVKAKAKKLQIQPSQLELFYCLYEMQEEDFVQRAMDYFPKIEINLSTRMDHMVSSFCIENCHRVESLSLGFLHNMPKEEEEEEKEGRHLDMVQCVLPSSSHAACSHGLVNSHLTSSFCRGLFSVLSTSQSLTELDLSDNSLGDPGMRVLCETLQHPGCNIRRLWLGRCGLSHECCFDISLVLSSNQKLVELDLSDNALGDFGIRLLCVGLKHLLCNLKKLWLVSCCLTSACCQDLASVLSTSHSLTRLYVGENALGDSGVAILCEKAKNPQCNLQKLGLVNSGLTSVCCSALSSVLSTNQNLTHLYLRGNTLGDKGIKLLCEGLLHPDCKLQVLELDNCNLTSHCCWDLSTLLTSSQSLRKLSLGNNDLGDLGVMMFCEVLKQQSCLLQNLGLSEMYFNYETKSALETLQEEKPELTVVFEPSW
UniProt O00206, residues 24-839: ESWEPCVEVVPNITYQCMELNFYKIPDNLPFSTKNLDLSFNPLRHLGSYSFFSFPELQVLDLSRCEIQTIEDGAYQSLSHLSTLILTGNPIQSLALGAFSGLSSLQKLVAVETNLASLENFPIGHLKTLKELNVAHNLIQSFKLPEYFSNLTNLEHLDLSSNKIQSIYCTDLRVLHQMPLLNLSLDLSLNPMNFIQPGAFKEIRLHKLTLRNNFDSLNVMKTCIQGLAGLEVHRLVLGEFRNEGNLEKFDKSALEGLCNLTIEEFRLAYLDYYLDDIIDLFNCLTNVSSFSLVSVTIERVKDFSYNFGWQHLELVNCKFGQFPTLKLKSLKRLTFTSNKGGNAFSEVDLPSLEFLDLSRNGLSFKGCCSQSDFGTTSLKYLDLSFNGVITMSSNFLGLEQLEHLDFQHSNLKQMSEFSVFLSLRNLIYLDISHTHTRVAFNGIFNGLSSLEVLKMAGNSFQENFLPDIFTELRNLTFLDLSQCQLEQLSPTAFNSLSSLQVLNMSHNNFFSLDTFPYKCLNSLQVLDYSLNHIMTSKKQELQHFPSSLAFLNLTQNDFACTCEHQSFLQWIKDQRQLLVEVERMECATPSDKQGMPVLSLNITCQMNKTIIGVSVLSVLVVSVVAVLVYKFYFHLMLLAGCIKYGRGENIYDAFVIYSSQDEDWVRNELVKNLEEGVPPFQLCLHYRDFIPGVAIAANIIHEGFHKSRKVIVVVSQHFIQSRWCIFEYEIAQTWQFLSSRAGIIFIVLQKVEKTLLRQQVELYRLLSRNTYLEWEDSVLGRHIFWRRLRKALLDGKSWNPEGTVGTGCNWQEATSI
UniProt O60603: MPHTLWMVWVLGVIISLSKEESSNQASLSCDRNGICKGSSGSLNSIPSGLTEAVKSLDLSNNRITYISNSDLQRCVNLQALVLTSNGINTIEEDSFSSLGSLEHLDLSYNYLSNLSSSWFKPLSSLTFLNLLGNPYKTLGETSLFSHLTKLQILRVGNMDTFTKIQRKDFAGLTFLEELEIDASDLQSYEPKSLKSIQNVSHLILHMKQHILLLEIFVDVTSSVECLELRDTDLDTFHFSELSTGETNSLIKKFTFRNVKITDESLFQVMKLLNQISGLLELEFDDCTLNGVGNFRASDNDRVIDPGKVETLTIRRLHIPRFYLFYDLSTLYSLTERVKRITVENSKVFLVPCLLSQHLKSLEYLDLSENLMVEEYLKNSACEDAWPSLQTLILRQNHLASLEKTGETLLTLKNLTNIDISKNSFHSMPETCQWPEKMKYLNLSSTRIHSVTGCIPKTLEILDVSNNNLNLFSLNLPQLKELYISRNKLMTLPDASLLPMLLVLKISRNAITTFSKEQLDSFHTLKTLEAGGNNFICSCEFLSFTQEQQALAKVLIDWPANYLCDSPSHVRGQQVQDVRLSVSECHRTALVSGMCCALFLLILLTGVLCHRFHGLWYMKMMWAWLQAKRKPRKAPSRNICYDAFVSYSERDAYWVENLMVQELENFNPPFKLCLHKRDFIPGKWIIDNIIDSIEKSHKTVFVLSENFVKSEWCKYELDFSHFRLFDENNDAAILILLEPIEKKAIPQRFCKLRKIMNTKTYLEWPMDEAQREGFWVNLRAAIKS

Biological target: SARS-CoV-2 Open Reading Frame 8 (ORF8) protein, Strep II-tagged (SARS-CoV-2) (UniProt P0DTC8)
Assay: pull-down

Row | Substance | binding
1 | Flag-N3-FL (full-length NLRP3) (from UniProt Q96P20 1-1036) | binds
2 | TLR4, endogenous in primary human monocytes (from UniProt O00206 24-839) (receptor) | no binding
3 | TLR2, endogenous in primary human monocytes (from UniProt O60603 21-784) (receptor) | no binding
4 | NOD-like receptor family pyrin domain-containing 3 (NLRP3), endogenous in primary human monocytes (from UniProt Q96P20 1-1036) | binds
